Measured values reported in patent US20250075147A1, “FRAGRANCE AND FLAVOR COMPOSITIONS COMPRISING NEW FLAVOR AND FRAGRANCE INGREDIENTS” (priority 2023, published 2025).

Experiments:
[1] = Evaluation by trained and/or certified flavor or fragrance chemists or master perfumers; categorization by commercial prospect; details: for Rating (category of commercial prospect): evaluation by trained flavor or fragrance chemists or master perfumers; for Rating: category of commercial prospect, (A) highest > (B) > (C) > (D) lowest, (E) requires further study
[2] = system: odor evaluation panel; assay: Odor evaluation panel rating of odorants by Rate-All-That-Apply (RATA) method with 55-word odor lexicon, plus intensity and pleasantness; design: species or system human; details: for Floral: mean panelist score for odor label floral (RATA); for Fruity: mean panelist score for odor label fruity (RATA); for Spicy: mean panelist score for odor label spicy (RATA); for Sweet: mean panelist score for odor label sweet (RATA); for Pleasantness: mean panelist score for odor pleasantness

Compound | Rating (category of commercial prospect) [1] | Floral [2] | Fruity [2] | Spicy [2] | Sweet [2] | Rating [1] | Pleasantness [2]
OCCSc1ccccn1 [Compound 965, 2-pyridin-2-ylsulfanylethanol] | (B) | 0 | 0.139 | 0 | 0 |  | 
CCOC(OCC)C(=O)c1ccccc1 [Compound 366, 2,2-diethoxy-1-phenylethanone] |  | 0.943 | 2.2 | 0 | 1.886 | (B) | 6.714
O=C(O)CCCC[C@@H]1CCSS1 [Compound 692, 5-[(3R)-dithiolan-3-yl]pentanoic acid] | (D) | 0 | 0 | 0.057 | 0 |  | 2.663
O=Cc1ccc([N+](=O)[O-])cc1 [Compound 773, 4-nitrobenzaldehyde] | (D) | 0.688 | 0.75 | 0.281 | 1.406 |  | 6.038
CCCC(O)C1CCCCC1 (centres unmarked) [Compound 141, 1-cyclohexylbutan-1-ol] |  | 0.531 | 2.375 | 0.031 | 1.875 | (A) | 6.747
CSC(=C[N+](=O)[O-])SC [Compound 868, 1,1-bis(methylsulfanyl)-2-nitroethene] | (D) | 0 | 0 | 0.056 | 0 |  | 
C=CCOc1ccccc1C=O [Compound 98, 2-prop-2-enoxybenzaldehyde] |  | 0.094 | 0.125 | 0.5 | 0.594 | (C) | 3.897
Oc1cccc2c1CCCC2 [Compound 258, 5,6,7,8-tetrahydronaphthalen-1-ol] |  | 0 | 0.083 | 0.25 | 0.278 | (D) | 
CCC1CCCCC1O (centres unmarked) [Compound 728, 2-ethylcyclohexan-1-ol] | (A) | 0.257 | 0 | 0.057 | 0.314 |  | 4.517
COC(C)(C)CC(C)=O [Compound 465, 4-methoxy-4-methylpentan-2-one] |  | 0.719 | 0.562 | 0.031 | 1.062 | (D) | 4.906
Cc1ccc2[nH]c(C)cc2c1 [Compound 586, 2,5-dimethyl-1H-indole] | (D) | 0.086 | 0 | 0.143 | 0.2 |  | 4.226
CCCC#CCCO [Compound 101, hept-3-yn-1-ol] |  | 0 | 0.3 | 0.167 | 0.533 | (C) | 5.177
C=C1N(C)c2ccccc2C1(C)C [Compound 741, 1,3,3-trimethyl-2-methylideneindole] | (B) | 0 | 0 | 0.111 | 0.111 |  | 
CC(C)(C)C1CCCCC1 [Compound 150, tert-butylcyclohexane] |  | 0.2 | 0.233 | 0.133 | 0.5 | (D) | 5.42
O=C(O)C=Cc1ccco1 [Compound 367, 3-(2-furyl)acrylic acid] |  | 0.062 | 0.312 | 0.094 | 0.625 | (D) | 4.716
C=CCCCCCCC=C [Compound 473, deca-1,9-diene] |  | 0.167 | 0.111 | 0 | 0.222 | (E) | 
CCCC(C)(CO)CO [Compound 761, 2-methyl-2-propylpropane-1,3-diol] | (D) | 0.25 | 0.469 | 0.031 | 1 |  | 5.156
CCOC(C)=C(C#N)C#N [Compound 428, 2-(1-ethoxyethylidene)propanedinitrile] |  | 0 | 0.111 | 0.167 | 0.528 | (D) | 
CCCN1CCC(=O)CC1 [Compound 877, 1-propylpiperidin-4-one] | (C) | 0.029 | 0.086 | 0.029 | 0.029 |  | 2.966
CCCC(=O)C(C)CC (centres unmarked) [Compound 407, 3-methylheptan-4-one] |  | 0.156 | 1.062 | 0.031 | 1.531 | (A) | 5.85
CNC(=S)N(C)C [Compound 403, 1,1,3-trimethylthiourea] |  | 0 | 0 | 0 | 0 | (D) | 
O=C(CO)OCc1ccccc1 [Compound 82, benzyl 2-hydroxyacetate] |  | 0.194 | 0.667 | 0.056 | 0.667 | (C) | 
CCN(CC)CCOCCO [Compound 433, 2-[2-(diethylamino)ethoxy]ethanol] |  | 0.212 | 0.364 | 0 | 0.727 | (D) | 5.17
Cn1sccc1=O [Compound 175, 2-methyl-1,2-thiazol-3-one] |  | 0.281 | 0.219 | 0.125 | 0.094 | (D) | 4.922
CC(=O)Nc1ccc(N)cc1 [Compound 962, N-(4-aminophenyl)acetamide] | (D) | 0.067 | 0.2 | 0.2 | 0.567 |  | 5.24
Nc1cccnn1 [Compound 534, pyridazin-3-amine] |  | 0.028 | 0 | 0 | 0.167 | (D) | 
COc1ccc(OCC#N)cc1 [Compound 531, 2-(4-methoxyphenoxy)acetonitrile] |  | 0.031 | 0.031 | 0.219 | 0.344 | (C) | 4.291
OCC1CCC=CO1 (centres unmarked) [Compound 417, 3,4-dihydro-2H-pyran-2-ylmethanol] |  | 0.167 | 0.667 | 0.083 | 0.417 | (B) | 
